Results reported in the supplement of paper PMC11060735.
“And” between values parts separate entries of the source, which are not always exact repeats. Equal entries are not always repeated. Structures can show the parent of a compound that is named as a salt. ± gives the standard deviation of the averaged measurements. Whole data set: some 1,800 compounds, median “GFP- (p16Ink4a-) cell count relative to negative-control wells” near 0.99, cut for the lowest 2% near 0.5. This is one part of the list.

Tested on: mouse p16Ink4a+/- lung fibroblasts (INKBRITE, bleomycin-injured)
Experiment: GFP- (p16Ink4a-) cell count relative to negative-control wells (fold of vehicle); higher = more p16Ink4a- cells surviving
Conditions: 1 µM; 3 days

Row | SMILES | GFP-
1 | NC(=O)c1ccc(-c2nc(-c3ccc4c(c3)OCO4)c(-c3ccccn3)[nH]2)cc1 | 1.22
2 | COc1ccc(-c2nc3cc(C4=NNC(=O)CC4C)ccc3[nH]2)cc1 (stereo not given) [Pimobendan] | 1.02
3 | CCCCC(=O)O[C@H]1CC[C@H]2[C@@H]3CCc4cc(O)ccc4[C@H]3CC[C@]12C [Estradiol valerate] | 1.05
4 | COc1cc(N2CCN(C)CC2)ccc1Nc1nccc(-c2cn(C)c3cnccc23)n1 | 0.993
5 | Cc1ccc(Nc2c(F)cccc2Cl)c(CC(=O)O)c1 [Lumiracoxib] | 1.11
6 | NC(=O)c1ccc(N(C(N)=O)c2c(F)cccc2F)nc1-c1ccc(F)cc1F | 0.986
7 | Cc1cnc(NC(=O)C2=C(O)c3ccccc3S(=O)(=O)N2C)s1 [Meloxicam] | 1.03
8 | O=C1C(=O)N(Cc2ccc(Cl)c(Cl)c2)c2ccccc21 [Apoptosis Activator 2] | 0.931
9 | CCC(CC)(NC(=O)C(C)C)C(=O)N[C@@H](CCCN=C(N)N)C(=O)NC1(C(=O)NC(c2ccc(F)cc2)c2ccc(F)cc2)CCCC1 | 1.06 ± 0.055
10 | COC[C@H](NC(=O)c1cnc(C)s1)C(=O)N[C@@H](COC)C(=O)N[C@@H](Cc1ccccc1)C(=O)C1(C)CO1 (stereo not given in full) [Oprozomib] | 0.381
11 | COc1ccc(-c2cc(=O)c3c(OC)c(OC)c(OC)c(OC)c3o2)cc1OC [Nobiletin] | 0.889
12 | CCn1c(=O)c2c(nc(/C=C/c3ccc(OC)c(OC)c3)n2C)n(CC)c1=O [Istradefylline] | 0.882
13 | CC(=O)O[C@@]12CO[C@@H]1C[C@H](O)[C@@]1(C)C(=O)[C@H](O)C3=C(C)[C@@H](OC(=O)[C@H](O)[C@@H](NC(=O)OC(C)(C)C)c4ccccc4)C[C@@](O)([C@@H](OC(=O)c4ccccc4)[C@H]21)C3(C)C [Docetaxel] | 0.447
14 | CCc1ccc(/C=C2/SC(=S)NC2=O)cc1 | 1.01
15 | Nc1nc(N)c2nc(-c3cccc(O)c3)c(-c3cccc(O)c3)nc2n1 | 1.19
16 | O=C(O)CC1CC(c2ccccc2)=NO1 (stereo not given) | 0.823
17 | CC(C)c1ccccc1Cc1cc(C(=O)Nc2ccc(S(=O)(=O)c3ccccc3C(C)(C)C)cc2)c(O)c(O)c1O | 0.849
18 | CO[C@H]1C[C@@H]2CC[C@@H](C)[C@@](O)(O2)C(=O)C(=O)N2CCCC[C@H]2C(=O)O[C@H]([C@H](C)C[C@@H]2CC[C@@H](OCCO)[C@H](OC)C2)CC(=O)[C@H](C)/C=C(\C)[C@@H](O)[C@@H](OC)C(=O)[C@H](C)C[C@H](C)/C=C/C=C/C=C/1C [Everolimus] | 0.743
19 | CCCCCOC(=O)Nc1nc(=O)n([C@@H]2O[C@H](C)[C@@H](O)[C@H]2O)cc1F [Capecitabine] | 1.13
20 | Oc1ccc(OC2CCCCO2)cc1 (stereo not given) [Deoxyarbutin] | 1.06
21 | COc1cccc(-c2cc(=O)c3ccccc3o2)c1N | 0.839
22 | CN1C(=O)C(Cc2c[nH]c3ccccc23)NC1=S (stereo not given) [Necrostatin-1] | 0.985
23 | O=C(/C=C/c1ccccc1)NC(NC(=S)Nc1ccc(Cl)cc1)C(Cl)(Cl)Cl (stereo not given) | 0.868
24 | N[C@@H](Cc1cc(I)c(Oc2cc(I)c(O)c(I)c2)c(I)c1)C(=O)O [Thyroxine, Levothyroxine] | 1.2
25 | Oc1nc2ccccc2n1CCCN1CCC(n2c(O)nc3cc(Cl)ccc32)CC1 [Domperidone] | 0.958

Grouped by structure, the compounds so far containing an NH in an aromatic ring (3)
Row | SMILES | GFP-
1 | NC(=O)c1ccc(-c2nc(-c3ccc4c(c3)OCO4)c(-c3ccccn3)[nH]2)cc1 | 1.22
2 | COc1ccc(-c2nc3cc(C4=NNC(=O)CC4C)ccc3[nH]2)cc1 (stereo not given) [Pimobendan] | 1.02
22 | CN1C(=O)C(Cc2c[nH]c3ccccc23)NC1=S (stereo not given) [Necrostatin-1] | 0.985

The results go on.

Row | SMILES | GFP-
26 | CCN1CCC[C@H]1CNC(=O)c1cc(S(N)(=O)=O)ccc1OC [Levosulpiride] | 0.964
27 | NC(=O)N1c2ccccc2C=Cc2ccccc21 [Carbamazepine] | 1.04
28 | CC(=O)[C@H]1CC[C@H]2[C@@H]3CCC4=CC(=O)CC[C@]4(C)[C@H]3CC[C@]12C [Progesterone] | 0.82
29 | Nc1cccc(-c2cc3c(Oc4cccc(O)c4)ncnc3[nH]2)c1 | 0.952
30 | CC[C@H](NC(=O)[C@H](C)NC)C(=O)N1C[C@@H](O)C[C@H]1Cc1c(-c2[nH]c3cc(F)ccc3c2C[C@@H]2C[C@H](O)CN2C(=O)[C@H](CC)NC(=O)[C@H](C)NC)[nH]c2cc(F)ccc12 [Birinapant] | 1.24
31 | O=C(NOCC(O)CO)c1cc(Br)c(F)c(F)c1Nc1ccc(I)cc1F (stereo not given) | 0.818
32 | C[C@@]1(C(=O)Nc2ccc(F)nc2)CCCN1c1nc(Nc2cc(C3CC3)[nH]n2)c2cccn2n1 | 0.776
33 | Cc1ncc(CO)c(CO)c1O [Pyridoxine] | 1.1
34 | Cc1nc2c([nH]1)-c1ccccc1N(C(=O)c1ccc(NC(=O)c3ccccc3-c3ccccc3)cc1)CC2 [Conivaptan] | 1.17
35 | C[C@H](O)[C@H](O)[C@@H](O)[C@@H](O)C=O [L-(+)-Rhamnose Monohydrate] | 0.964
36 | CC(C)(C#N)c1cc(Cn2cncn2)cc(C(C)(C)C#N)c1 [Anastrozole] | 1.06
37 | COc1cccc2c1C(=O)c1c(O)c3c(c(O)c1C2=O)C[C@@](O)(C(=O)CO)C[C@@H]3O[C@H]1C[C@H](N)[C@H](O)[C@H](C)O1 [Doxorubicin] | 0.72
38 | Cc1nnc(C(=O)NC(C)(C)c2nc(C(=O)NCc3ccc(F)cc3)c(O)c(=O)n2C)o1 [Raltegravir] | 1.08
39 | Cc1ccc(NCCCc2ccccc2)c(N)c1 | 1.04
40 | CO[C@H]1/C=C/O[C@@]2(C)Oc3c(C)c(O)c4c(O)c(c5c(c4c3C2=O)=NC2(CCN(CC(C)C)CC2)N=5)NC(=O)/C(C)=C\C=C\[C@H](C)[C@H](O)[C@@H](C)[C@@H](O)[C@@H](C)[C@H](OC(C)=O)[C@@H]1C [Rifabutin] | 1.07
41 | CN1CC(=O)N2[C@H](c3ccc4c(c3)OCO4)c3[nH]c4ccccc4c3C[C@@H]2C1=O [Tadalafil] | 1.02
42 | Cc1cn([C@@H]2C[C@@H](O)[C@H](CO)O2)c(=O)[nH]c1=O [Telbivudine] | 1.09
43 | Nc1nnc(-c2cccc(Cl)c2Cl)c(N)n1 [Lamotrigine] | 0.993
44 | CCOc1nc2cccc(C(=O)OC(C)OC(=O)OC3CCCCC3)c2n1Cc1ccc(-c2ccccc2-c2nn[nH]n2)cc1 (stereo not given) [Candesartan Cilextil] | 0.986
45 | COCCCC/C(=N\OCCN)c1ccc(C(F)(F)F)cc1 [Fluvoxamine] | 1
46 | CC(=O)Oc1ccccc1C(=O)O [Acetylsalicylic acid] | 0.96
47 | CNS(=O)(=O)CCc1ccc2[nH]cc(C3CCN(C)CC3)c2c1 [Naratriptan] | 0.92
48 | Nc1nc(O)c2ncn(COC(CO)CO)c2n1 [Ganciclovir] | 1.03
49 | O=S(=O)(c1cccc2cnccc12)N1CCCNCC1 [Fasudil Hydrochloride] | 1.01
50 | Cc1cc(O)c2c(c1)C(=O)c1cccc(O)c1C2=O [Chrysophanol] | 1.01

Row | SMILES | GFP-
51 | CC(=O)Nc1cccc(-n2c(=O)n(C3CC3)c(=O)c3c(Nc4ccc(I)cc4F)n(C)c(=O)c(C)c32)c1 [Trametinib] | 0.844
52 | C=C[C@]1(C)C[C@@H](OC(=O)CSC(C)(C)CNC(=O)[C@H](N)C(C)C)[C@]2(C)[C@H](C)CC[C@]3(CCC(=O)[C@H]32)[C@@H](C)[C@@H]1O [Valnemulin HCl] | 0.913
53 | c1ccc(-c2ccc(C(c3ccccc3)n3ccnc3)cc2)cc1 (stereo not given) [Bifonazole] | 1.07
54 | CC[C@H](/C=C/[C@@H](C)[C@@H]1CC[C@H]2[C@@H]3CC=C4C[C@@H](O)CC[C@]4(C)[C@@H]3CC[C@@]21C)C(C)C [Stigmasterol] | 0.994
55 | Cc1cn([C@H]2O[C@@H](CO)[C@H](O)[C@H]2F)c(=O)[nH]c1=O [Clevudine] | 1.07
56 | O=c1ncn2nc(Sc3ccc(F)cc3F)ccc2c1-c1c(Cl)cccc1Cl | 1.13
57 | O=C(O)c1cn(-c2ccc(F)cc2)c2cc(N3CCNCC3)c(F)cc2c1=O [Sarafloxacin] | 1.06
58 | CCCCCCCCCCCCCCCC[n+]1ccn(Cc2ccccc2)c1C | 0.889
59 | CC1(C)CCC(C)(C)c2cc(NC(=O)c3ccc(C(=O)O)cc3)ccc21 [Tamibarotene] | 0.817
60 | CC(=O)NC[C@H]1CN(c2ccc(N3CCOCC3)c(F)c2)C(=O)O1 [Linezolid] | 0.998
61 | CN(C)C(=O)Nc1cccc(-c2ccc(N(C)C)cc2)c1 [Atglistatin] | 0.934
62 | CC(=O)Nc1ccc(NC(=S)NC(=O)c2ccc(C(C)(C)C)cc2)cc1 [Tenovin-1] | 0.758
63 | CCn1cc(C(=O)O)c(=O)c2ccc(C)nc21 [Nalidixic Acid] | 0.895
64 | CN1C(C(=O)Nc2ccccn2)=C(O)c2sc(Cl)cc2S1(=O)=O [Lornoxicam] | 0.907
65 | CCC(=O)OCC(=O)[C@@]1(OC(=O)CC)[C@@H](C)C[C@H]2[C@@H]3CCC4=CC(=O)C=C[C@]4(C)[C@@]3(Cl)[C@@H](O)C[C@@]21C [Beclomethasone Dipropionate] | 1.2
66 | CNC(=O)c1ccccc1Nc1nc(Nc2ccc(N3CCOCC3)cc2OC)ncc1Cl | 0.742
67 | N#Cc1ccc2[nH]c(O)c(-c3ccc(CN4CCOCC4)cn3)c2c1 | 1.1
68 | O=NO [Sodium Nitrite] | 0.969
69 | C[N+]1(C)CCC(=C(c2ccccc2)c2ccccc2)CC1 [Diphemanil Methylsulfate] | 1.02
70 | CC1CCc2c(N3CCC(O)CC3)c(F)cc3c(=O)c(C(=O)O)cn1c23 (stereo not given) [Nadifloxacin] | 1.21
71 | CCCN[C@H]1CCc2nc(N)sc2C1 [Pramipexole] | 0.866
72 | CC(C)(C)C(=O)OCOP(=O)(COCCn1cnc2c(N)ncnc21)OCOC(=O)C(C)(C)C [Adefovir Dipivoxil] | 0.842
73 | CCCNC(C)C(=O)Nc1ccccc1C (stereo not given) [Prilocaine] | 1.01
74 | C[C@]12CC[C@@H]3c4ccc(O)cc4CC[C@H]3[C@@H]1CCC2=O [Estrone] | 1.05
75 | CC1(C)[C@H](C(=O)O)N2C(=O)C[C@H]2S1(=O)=O [Sulbactam] | 0.946 and 1.05
